In the supplement of paper PMC8256030 one finds mCherry data, which are given here for 24 compounds.

Where “and” joins values, the source holds several entries; their conditions need not be identical. Identical values can stand only once. The list shows a part of the results. This data set is noisy: repeats of one test often differ as much as different tests do.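 HEK293T cells were given each compound shortly before transfection with a reporter in which red mCherry is followed by the SARS-CoV-2 frameshift element and then GFP in the −1 frame, so GFP appears only after frameshifting.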

In this assay the test system is SARS-CoV-2 -1 PRF reporter mCherry-FSE-GFP(-1). In words: mCherry (red) intensity as percent of control; higher = higher upstream reporter expression. The following applies: 10 µM; 24 h; HEK293T.
As to `CCN1CCC[C@H]1CNC(=O)c1c(O)c(Cl)cc(Cl)c1OC` [S(-)-Raclopride], the mCherry turned out to be 91.8%.

`Clc1ccc(C(Cn2ccnc2)OCc2ccsc2Cl)c(Cl)c1` (centres undefined) [tioconazole] gave a mCherry of 126%. With `CC(=O)CC(c1ccccc1)c1c(O)c2ccccc2oc1=O` (centres undefined) [warfarin] the figure was 112%. Under `C#C[C@]1(OC(C)=O)CC[C@H]2[C@@H]3CCC4=CC(=O)CC[C@@H]4[C@H]3CC[C@@]21C` stands 120%; under `O=[N+]([O-])c1ccc(/C=N/O)o1` [nifuroxime], 106%; under `COc1ccc2c(O[C@@H]3C[C@H]4C(=O)N[C@]5(C(=O)NS(=O)(=O)C6(C)CC6)C[C@H]5/C=C\CCCCC[C@H](NC(=O)c5ccn(C)n5)C(=O)N4C3)cc(OC(C)C)nc2c1C`, 47.4%. Under `NCC[C@H](O)C(=O)N[C@@H]1C[C@H](N)[C@@H](O[C@H]2O[C@H](CN)[C@@H](O)[C@H](O)[C@H]2O)[C@H](O)[C@H]1O[C@H]1O[C@H](CO)[C@@H](O)[C@H](N)[C@H]1O` [amikacin] stands 85.5% and 96.8%. Turning to `CC1CC(=O)NN=C1c1ccc(NN=C(C#N)C#N)cc1` (centres undefined) [simendan], the mCherry was 115%. `C=C(C)CNc1ccc(C(C)C(=O)O)cc1` (centres undefined) [alminoprofen] returned a mCherry of 66.9%.

The compound `N[C@H](Cc1cc(I)c(Oc2cc(I)c(O)c(I)c2)c(I)c1)C(=O)O` [Choloxin] returned a mCherry of 102%. As for `COc1cccc(CCc2ccccc2OCC(CN(C)C)OC(=O)CCC(=O)O)c1` (centres undefined) [sarpogrelate], the mCherry turned out to be 108%. Under `O=C(O)c1cc(-c2ccccc2)nc2ccccc12` [cinchophen] stands 97.9%; under `N=C(N)N/N=C/c1c(Cl)cccc1Cl` [guanabenz], 71.2%; under `CCOC(=O)C1=C(C)NC(C)=C(C(=O)OCC)C1c1ccccc1/C=C/C(=O)OC(C)(C)C` [Lacidipine], 81%. Under `O=C(O)C(=O)O.[NH-][C@@H]1CCCC[C@H]1[NH-].[Pt+2]` [Oxaliplatin] stands 57.2%; under `C[C@H]1C[C@H]2[C@@H]3CCC4=CC(=O)C=C[C@]4(C)[C@H]3C(=O)C[C@]2(C)[C@@]1(O)C(=O)CO` [meprednisone], 96.2%. With `N=C(N)NCCC[C@H](N)C(=O)O` [arginine] the figure was 111% and 118%.

Turning to `C[N+](C)(C)CCOP(=O)(O)OC[C@H](O)CO` [choline alfoscerate], the mCherry was 101%. In turn, `CO[C@H]1O[C@H](COS(=O)(=O)O)[C@@H](O[C@@H]2O[C@@H](C(=O)O)[C@@H](O[C@H]3O[C@H](COS(=O)(=O)O)[C@@H](O[C@@H]4O[C@H](C(=O)O)[C@@H](O[C@H]5O[C@H](COS(=O)(=O)O)[C@@H](O)[C@H](O)[C@H]5NS(=O)(=O)O)[C@H](O)[C@H]4O)[C@H](OS(=O)(=O)O)[C@H]3NS(=O)(=O)O)[C@H](O)[C@H]2OS(=O)(=O)O)[C@H](O)[C@H]1NS(=O)(=O)O` [Fondaparinux sodium] registered a mCherry of 73%. With `CC(C)OC(=O)[C@H](C)N[P@](=O)(OC[C@H]1O[C@@H](n2ccc(=O)[nH]c2=O)[C@](C)(F)[C@@H]1O)Oc1ccccc1` [Sofosbuvir] the figure was 113%; with `CCCSc1nc(N[C@@H]2C[C@H]2c2ccc(F)c(F)c2)c2nnn([C@@H]3C[C@H](OCCO)[C@@H](O)[C@H]3O)c2n1` [Brilinta], 107%. Under `COCCCN1CCC(NC(=O)c2cc(Cl)c(N)c3c2OCC3)CC1` [prucalopride] stands 84.7%.

In the case of `O=C(O)c1ccccc1NCCc1ccccc1` [enfenamic acid], the mCherry is 96.9%. Under `CC(=O)OCC(=O)[C@@]12N=C(C)O[C@@H]1C[C@H]1[C@@H]3CCC4=CC(=O)C=C[C@]4(C)[C@H]3[C@@H](O)C[C@@]12C` stands 109%.
